Source: patent US20030180744
For some assays here: A negative result means that nothing was seen under these conditions. For some assays here: Weaker means in comparison with the reference protein, sequence or condition of that experiment. For some assays here: Tags and fusion partners may be left off the protein sequences shown. For some assays here: The exact form of at least one protein or probe is not confirmed.

Protein sequences, listed by entry. Tags and fused reporters are not part of them. Residues count along the entry.
UniProt P01127, 82-190: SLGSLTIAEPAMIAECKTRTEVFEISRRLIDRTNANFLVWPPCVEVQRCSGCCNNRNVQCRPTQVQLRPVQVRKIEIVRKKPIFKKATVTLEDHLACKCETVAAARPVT
UniProt P01137, 279-390: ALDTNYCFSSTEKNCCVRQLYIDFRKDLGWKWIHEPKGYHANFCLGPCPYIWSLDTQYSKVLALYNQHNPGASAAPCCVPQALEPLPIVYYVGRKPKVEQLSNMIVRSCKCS

Legend:
[1] = target: PDGF-BB (Homo sapiens) (UniProt P01127); experiment: competition with a labelled probe; details: 3'-3' idT; no effect on receptor binding or mitogenesis; purified recombinant protein; single-stranded DNA; dose not given here
[2] = target: T1, KGF (hKGF) (Homo sapiens) (UniProt P21781); experiment: filter binding; details: 2'-F pyrimidines, purified recombinant protein, protein details: Upstate Biotechnology; for binding result: variant of 14F3'T
T1 sequence (looked up, limits assumed): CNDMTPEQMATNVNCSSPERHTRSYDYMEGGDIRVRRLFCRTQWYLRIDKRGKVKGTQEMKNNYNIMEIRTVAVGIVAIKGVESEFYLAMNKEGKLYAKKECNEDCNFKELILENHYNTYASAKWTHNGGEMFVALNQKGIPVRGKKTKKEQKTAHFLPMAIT

[3] = target: TGFβ1 (Homo sapiens) (UniProt P01137); experiment: filter binding; details: 2'-NH2 pyrimidines, purified recombinant protein

“CAGTCCGTGGTAGGGCAGGTTGGGGTGACTTCGTGGAAT [T39]” was tested, and the “functional effect of the aptamer” value [1] was “not active”.

“GAGGACGAUGCGGUGGUCUCCCAAUUCUAAACUUUCUCCAUCGUAUC [T8]”: binds more weakly ([2]; high -, low +).

“GGGAGGACGAUGCGGUGGUCUCCCAAUUCUAAACUCCAUCGUAUC [T6]”: binds more weakly ([2]; high ±, low +).

“GGGAGGACGAUGCGGUGGUCUCCCAAUUCUAAACUUUCUCCAUCGUA [T2]”: binds more weakly ([2]; high -, low +).

With “GGGAGGACGAUGCGGUGGUCUCCCAAUUCUAAACUUUCUCCAUCGUAUC [14F3'T]” the Kd ([2]; high affinity component, Kd2 10.2 nM, Balb/MK Ki 34 pM, label: 32P, variant of 14F) was 0.0008 nM.

“GGGAGGCGAUGCGGUGGUCUCCCAAUUCUAUUCUCCAUCGUAUC [T16]”: binds more weakly ([2]; high -, low ±).

With “GGGGGAGAACGCGGAUCCGAGCAAUCCCAGGCGCAUAGCUUCCGAGUAGACAGGAGGGAGGGGUGGAUGUGGCGUCUACUCGGUGUCGUGAAGCUUCGCUCUAGAUCUCCCUUUAGUGAGGGUUA [lib3-13]” the Kd ([3]; mean of 0.9, 0.7, 0.9, +/-0.11, 37 C, cell IC50 25 nM, protein details: Genentech, biotinylated version used in bead assay) was 0.83 nM.

“GGGGGAGAACGCGGAUCCUGCUAGACCGAGGAUGCAAAGGGACAUGCAUUAGGGAAACCUAUGUAUAAGAACGCGGUCGCAGAAGCUUCGCUCUAGAUCUCCCUUUAGUGAGGGUUA [lib1-20-3 (2'-NH2)]”: no binding ([3]; did not bind with 2'-NH2 pyrimidines, protein details: Genentech or R&D Systems, variant of lib1-20-3).
